One substance from article PMC9537123 can be followed below.

The chains behind the UniProt entries cited, without tags or fusion partners.
UniProt Q08369: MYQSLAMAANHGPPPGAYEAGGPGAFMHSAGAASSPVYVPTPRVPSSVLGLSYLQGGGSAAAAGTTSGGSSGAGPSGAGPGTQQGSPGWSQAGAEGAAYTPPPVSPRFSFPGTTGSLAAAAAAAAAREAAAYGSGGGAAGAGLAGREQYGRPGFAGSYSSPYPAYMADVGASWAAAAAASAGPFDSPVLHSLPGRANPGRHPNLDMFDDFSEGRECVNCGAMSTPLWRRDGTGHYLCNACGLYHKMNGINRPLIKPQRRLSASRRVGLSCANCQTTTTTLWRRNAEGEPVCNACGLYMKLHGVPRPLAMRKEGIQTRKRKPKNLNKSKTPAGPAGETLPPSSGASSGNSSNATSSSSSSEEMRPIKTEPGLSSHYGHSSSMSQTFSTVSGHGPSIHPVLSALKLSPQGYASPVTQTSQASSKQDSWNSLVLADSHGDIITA
UniProt Q00403: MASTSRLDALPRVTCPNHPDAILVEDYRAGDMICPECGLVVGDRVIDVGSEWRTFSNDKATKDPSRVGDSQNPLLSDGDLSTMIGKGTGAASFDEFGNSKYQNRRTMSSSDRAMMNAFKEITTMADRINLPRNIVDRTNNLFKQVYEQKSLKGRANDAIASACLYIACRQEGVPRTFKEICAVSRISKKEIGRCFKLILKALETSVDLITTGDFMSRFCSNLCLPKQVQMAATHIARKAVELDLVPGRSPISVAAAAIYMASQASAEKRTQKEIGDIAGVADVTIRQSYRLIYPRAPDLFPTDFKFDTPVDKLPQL

The assay concerns the target GATA-4-mCherry fusion protein (mouse) (UniProt Q08369). Description: co-IP; nuclear fraction of sorted GFP-h-Muse cells 8 h after incubation with apoptotic GATA-4-mCherry reporter m-HL-1 fragments; anti-mCherry antibody and Dynabeads protein G overnight at 4 °C; washed six times in 10 mM Tris-HCl pH 8.0, 100 mM NaCl, 2 mM EDTA, 0.01% NP-40; Western blot; normal IgG as negative control.

These are yes or no findings as the source states them, for the method shown. In cells and extracts the contact can be indirect. Some entries that bind do so weakly or less than the wild type.

For “transcription factor II B (from UniProt Q00403 1-316)”, the binding result is recorded as “binds”.
